The values that follow come from PMC13469122, “Structural and mechanistic insights into primer synthesis initiation by DNA primase” (Nature Communications, 2026).

The target in data set [1] is T1, pRN1 primase (catalytic domain-linker-HBD) (Sulfolobus islandicus plasmid pRN1) (UniProt Q54324).
T1 sequence (looked up): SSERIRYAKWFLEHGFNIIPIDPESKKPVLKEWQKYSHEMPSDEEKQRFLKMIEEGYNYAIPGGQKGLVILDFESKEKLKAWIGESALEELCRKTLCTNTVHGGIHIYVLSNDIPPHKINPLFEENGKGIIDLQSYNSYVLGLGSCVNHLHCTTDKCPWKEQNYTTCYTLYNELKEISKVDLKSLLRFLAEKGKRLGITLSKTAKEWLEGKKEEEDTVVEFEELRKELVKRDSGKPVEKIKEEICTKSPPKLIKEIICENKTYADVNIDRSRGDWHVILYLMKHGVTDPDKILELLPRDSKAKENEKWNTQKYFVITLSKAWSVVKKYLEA
Nature of the data set: NMR (E333 shift). Conditions: not fully bound, 25 mM sodium phosphate, 50 mM NaCl, 10 mM MgCl2, pH 7.0, recombinant protein, residues 40-370, protein details: C-terminal His6, not cleaved, single-stranded DNA.

For data set [2], the target named is T2, pRN1 primase helix bundle domain (HBD) (Sulfolobus islandicus plasmid pRN1) (UniProt Q54324).
T2 sequence (looked up): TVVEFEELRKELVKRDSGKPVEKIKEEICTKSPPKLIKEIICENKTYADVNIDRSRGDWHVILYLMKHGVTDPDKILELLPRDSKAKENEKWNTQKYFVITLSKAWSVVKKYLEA
Nature of the data set: NMR (G3 imino). Conditions: 25 mM sodium phosphate, 50 mM NaCl, 10 mM MgCl2, pH 7.0, recombinant protein, residues 256-370, single-stranded DNA.

Data set [3] deals with T1, pRN1 primase (catalytic domain-linker-HBD) (Sulfolobus islandicus plasmid pRN1). Nature of the data set: NMR. To be noted: no Mg2+ (binds template less efficiently than with Mg2+); 25 mM sodium phosphate, 50 mM NaCl, 10 mM MgCl2, pH 7.0; recombinant protein; residues 40-370; protein details: C-terminal His6, not cleaved; single-stranded DNA.
Data set [4] has as its target T3, pRN1 primase K195A (Sulfolobus islandicus plasmid pRN1) (UniProt Q54324).
T3 sequence (looked up): T1 sequence (looked up) with K156A
Nature of the data set: NMR. Conditions: 2 ATP, then dGTP, 313 K, base-pair transfer to E-site impaired; 25 mM sodium phosphate, 50 mM NaCl, 10 mM MgCl2, pH 7.0; recombinant protein; residues 40-370; protein details: C-terminal His6, not cleaved; single-stranded DNA.

Positions count from the first letter of the chain named. The exact form of at least one protein or probe is not confirmed. For some of these results: A weaker result is weaker than the reference pair of the same experiment. For some of these results: At least one verdict rests on a figure or table, not on a statement of the authors. Protein sequences can lack the tags named with them.

As to GCGTGCTCA [DNAGC], the binding result was “binds more weakly” in data set [1] (dATP, G-A mismatch) and “binds more weakly” in data set [1] (dTTP, G-T mismatch).

As for CAGTGCTCA [DNACA], in data set [1] (dATP, C-A mismatch), the binding result is “binds more weakly”.

Turning to GAGTGCTCA [DNAGA], the binding result is “binds” in data set [2] (dATP, G-A mismatch); “binds” in data set [2] (dGTP, G-G mismatch); “binds more weakly” in data set [1] (dGTP, G-G mismatch).

In the case of ACGTGCTCA [DNAAC], the binding result is “binds” in data set [2] (GTP, A-G mismatch); “binds” in data set [2] (dATP, A-A mismatch); “binds more weakly” in data set [1] (dATP, A-A mismatch).

On to TCGTGCTCA [DNATC], for which the binding result is recorded as “binds” in data set [2] (dATP, stable T-A pair); “binds” in data set [2] (dGTP, T-G mismatch); “binds more weakly” in data set [1] (dCTP, T-C mismatch); “binds more weakly” in data set [1] (dTTP, T-T mismatch).

For CTGTGCTCA [DNACT], the binding result in data set [3] is “binds more weakly”; in data set [4], “binds”; in data set [1] (dCTP, C-C mismatch) it was “binds more weakly”.
